Reference: patent US20100062984A1, “FGF-23 POLYPEPTIDES” (priority 2007, published 2010)

B1: FGF-23(184-251): synthetic FGF-23 fragment, residues 184-251, SEQ ID NO: 4 (peptide, listed as Homo sapiens)
chain: DSERDPLNVLKPRARMTPAPASCSQELPSAEDNSPMASDPLGVVRGGRVNTHAGGTGPEGCRPFAKFI
B2: FGF-23(25-251): full-length recombinant human FGF-23(25-251) polypeptide expressed in E. coli, SEQ ID NO: 1 (protein, listed as Homo sapiens)
chain: YPNASPLLGSSWGGLIHLYTATARNSYHLQIHKNGHVDGAPHQTIYSALMIRSEDAGFVVITGVMSRRYLCMDFRGNIFGSHYFDPENCRFQHQTLENGYDVYHSPQYHFLVSLGRAKRAFLPGMNPPPYSQFLSRRNEIPLIHFNTPIPRRHTRSAEDDSERDPLNVLKPRARMTPAPASCSQELPSAEDNSPMASDPLGVVRGGRVNTHAGGTGPEGCRPFAKFI
B3: FGF-23(176-251): synthetic FGF-23 fragment, residues 176-251, SEQ ID NO: 2 (peptide, listed as Homo sapiens)
chain: RHTRSAEDDSERDPLNVLKPRARMTPAPASCSQELPSAEDNSPMASDPLGVVRGGRVNTHAGGTGPEGCRPFAKFI
B4: FGF-23(180-251): synthetic FGF-23 fragment, residues 180-251, SEQ ID NO: 3 (peptide, listed as Homo sapiens)
chain: SAEDDSERDPLNVLKPRARMTPAPASCSQELPSAEDNSPMASDPLGVVRGGRVNTHAGGTGPEGCRPFAKFI

Test system: normal rats
Assay: Acute intravenous infusion of equimolar FGF-23 polypeptides in anesthetized rats, renal clearance
Assay type: in vivo, rat
Details: E = experimental clearance, i.v. infusion 1.24 nmol/kg/hour; mean ± SE
Experimental: Male Sprague Dawley rats weighing 300 g were purchased from Harlan Sprague Dawley Inc. (Madison Wis.). They were fed a standard rodent diet containing 0.7% phosphate and 0.5% calcium. All animals were fasted overnight prior to the experiment. On the day of the experiment, rats were anesthetized with an intraperitoneal injection of 100-150 mg/kg body weight of 5-sec-butyl-ethyl-2-thiobarbituricacid (Inactin, Byk Gulden Konstanz, Hamburg, Germany). The rats were placed on a heated table to maintain body temperature between 36-38° C. After a tracheostomy, a PE 50 catheter was placed in the left carotid artery to monitor mean arterial blood pressure (MAP) and to collect blood samples. Catheters were also placed in the left and right jugular veins for infusions. A solution containing 2% inulin in 0.9% NaCl plus 4.5% BSA was infused at a rate of 1.2 mL/hour in one catheter, and 0.9% NaCl was infused in the other catheter at a rate of 1.2 mL/hour. A catheter (PE 90) was placed in the bladder for urine collection. Acute infusion studies were performed using the following seven different groups of animals.
Group 1: Vehicle Time control (n=8). After a ninety-minute recovery period, one […] urine sample was taken (C1) and a blood sample was taken. One hour later a second 60-minute clearance was taken (C2).
Group 2: Effect of acute infusion of full length FGF-23 polypeptide (1.24 nmol/kg/hour, n=8). This protocol is identical to group 1 except that after the control collections, full-length recombinant FGF-23 polypeptide was added to the 0.9% saline infusion to deliver 1.24 nmol/kg/hour of full length FGF-23 polypeptide. After one hour of infusion, a sixty-minute clearance was taken.
Group 3: Effect of acute infusion of FGF-23(176-251) polypeptide (1.24 nmol/kg/hour, n=8). This protocol is identical to group 2 except for the sequence of the infused polypeptide.
Group 4: Effect of acute infusion of FGF-23(180-251) polypeptide (1.24 nmol/kg/hour, n=8). This protocol is identical to group 2 except for the sequence of the infused polypeptide.
Group 5: Effect of infusion of FGF-23(184-251) polypeptide (1.24 nmol/kg/hour, n=8). This protocol is identical to group 2 except for the sequence of the infused polypeptide.
Group 6: Effect of infusion of FGF-23(206-251) polypeptide (1.24 nmol/kg/hour, n=6). This protocol is identical to group 2 except for the sequence of the infused polypeptide.
Group 7: Effect of infusion of FGF-23(180-205) polypeptide (1.24 nmol/kg/hour, n=6). This protocol is identical to group 2 except for the sequence of the infused polypeptide.
Plasma and urine phosphate concentrations were determined using the method of Chen (Chen et al., Anal Chem., 28:1756-1758 (1956)). Inulin concentrations in plasma and urine were determined using the anthrone method (Führ et al., Klin. Wochenschr., 33.:729-730 (1955)). Sodium concentrations in urine were determined by ion selective electrode (EasyLyte Plus Analyzer, Medica Corp., Bedford, Mass.). Calcium concentrations were measured using atomic absorption spectrometry (Kumar et al., Biochemistry, 15:2420-2423 (1976)) with a Perkin Elmer Model 3300 Atomic Absorption Spectrometer (Perkin Elmer, Boston, Mass.). Serum 1α,25(OH)2D concentrations were measured using an RIA kit (Diasorin, Stillwater, Minn.).
Statistically significant differences between groups were evaluated by Student's t-test for comparison between two groups or by one-way analysis of variance (ANOVA) followed by Tukey's test for multiple comparisons. All values were expressed as mean±SE. A p value less than 0.05 was considered to be statistically significant.

In order of rising “GFR (glomerular filtration rate), experimental clearance” value:
1. FGF-23(206-251): synthetic FGF-23 fragment, residues 206-251, SEQ ID NO: 5 (CSQELPSAEDNSPMASDPLGVVRGGRVNTHAGGTGPEGCRPFAKFI; listed as Homo sapiens)  3.1 ± 0.2 mL/min
2. B3  3.1 ± 0.4 mL/min
3. B2  3.3 ± 0.5 mL/min
4. B4  4.2 ± 0.4 mL/min
5. B1  4.3 ± 0.3 mL/min
6. FGF-23(180-205): synthetic FGF-23 fragment, residues 180-205, SAEDDSERDPLNVLKPRARMTPAPAS, SEQ ID NO: 6 (listed as Homo sapiens)  4.5 ± 0.3 mL/min
